# Primary screen of a compound library

Amino acid sequences for entries named in this document (tags omitted). Residues count along the entry.
UniProt A4I591, 1-473: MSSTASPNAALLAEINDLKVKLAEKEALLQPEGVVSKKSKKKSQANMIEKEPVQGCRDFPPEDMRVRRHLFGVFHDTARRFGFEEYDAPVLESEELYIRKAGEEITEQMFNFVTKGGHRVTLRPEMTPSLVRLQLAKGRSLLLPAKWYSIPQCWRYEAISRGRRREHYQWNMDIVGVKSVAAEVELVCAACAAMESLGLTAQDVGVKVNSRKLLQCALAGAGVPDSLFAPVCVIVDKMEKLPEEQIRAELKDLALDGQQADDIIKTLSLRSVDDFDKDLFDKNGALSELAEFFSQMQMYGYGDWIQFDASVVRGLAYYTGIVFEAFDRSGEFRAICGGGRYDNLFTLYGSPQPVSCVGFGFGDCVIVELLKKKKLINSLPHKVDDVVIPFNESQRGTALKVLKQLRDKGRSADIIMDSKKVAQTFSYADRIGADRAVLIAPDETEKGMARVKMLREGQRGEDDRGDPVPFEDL

From ChEMBL document CHEMBL3988442, “University of Dundee, Small-Polar-MMV Screening Library” (2021).

Toxoplasma: 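Assay of Toxoplasma gondii numbers, read through their beta-galactosidase reporter with a colour substrate. Compounds at 10 µM. The record gives no direction; the compounds picked for IC50 retests had high values, so higher reads as fewer parasites. About 67,000 compounds were tested under these conditions; 0.38% (about 260) showed 50% or more at least once.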
LiHisRS: 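Enzyme assay of histidyl-tRNA synthetase; the read-out is not stated. Target: Histidine-tRNA ligase, Leishmania infantum (UniProt A4I591). Tested at 30 µM. The record gives no direction; compounds that gave an IC50 in retests scored well above the rest, so higher reads as stronger inhibition. The assay is labelled LdHisRS but filed under L. infantum. About 69,000 compounds were tested under these conditions; 0.6% (about 410) showed 50% or more at least once.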

Values are the deposited “Percent Effect”, in %.
How 0% and 100% were set is not recorded. Most values in the screen are low, and negative values occur.
Compounds were drawn at random from those tested, without regard to their results.
A dash means the value is not listed here; it may have been measured.

compound,Toxoplasma,LiHisRS
CCN(CC1CCOC1)C(=O)c1ccn(-c2cc(C)ccc2OC)n1 (stereo not given),3.285%,4.082%
COCc1cc(NCC(F)(F)F)n2nccc2n1,15.92%,-1.205%
O=C(O)C(F)(F)F.[H][C@@]12CN(Cc3ccccn3)C[C@]1([H])CN(C(=O)Cc1cccc(F)c1)C2,0.4808%,-
c1cnc(-c2nn3c(CN4CCCCCC4)nnc3s2)cn1,65.52%,5.172%
Cc1cccc2c1NC1(CCOCC1)NC2=O,-5.249%,18.42%
CC(C)OCc1ccc(CNC(=O)NC2(CO)CCCC2)cc1,-16.44%,7.692%
Cc1cc(C2CCC2)nc(NCC(C)(C)N2CCOCC2)n1,-4.965%,16.46%
CCC1=N[C@@]2(CC[C@@H]3CN(C(=O)NCc4ccccc4)C[C@@H]32)C(=O)N1,-,11.76%
Cc1nnc(N2CCC(CS(N)(=O)=O)CC2)c(C#N)c1C,-23.1%,18.67%
CNC(=O)N1CCC2(CC1)CN(C)c1ccc(F)cc12,1.011%,22.22%
Cc1nc2c(s1)C(N(C)C(=O)NCCCC(C)(C)CO)CCC2 (stereo not given),-6.917%,10.96%
CC(C)(C)S(=O)(=O)c1ccc(N2CCC(n3cncn3)CC2)cn1,6.383%,24.05%
O=C1O[C@@H]2CN(Cc3cccc(F)c3)C[C@@H]2N1CCCN1CCOCC1,-,14.56%
CN(C)C(Cn1ccnc1-c1ccccc1C(=O)O)c1ccccc1Cl (stereo not given),0.8696%,16.39%
Cc1[nH]ncc1C(=O)N1CCCC(c2ccn[nH]2)C1 (stereo not given),1.883%,1.818%
CSc1cc(CNC(=O)CCOc2ccccc2C)ccn1,0.9029%,-6.667%
CCNC(=O)CNC(=O)Nc1c(F)cc(F)cc1-c1ccccc1,-1.335%,19.57%
O=C(C1CCC2(CCN(c3nncs3)CC2)CO1)N1CCCC1 (stereo not given),-,26.32%
Cn1cc(C#N)cc1C(=O)N1CCC2(CCCN(CC3CCC3)C2=O)C1 (stereo not given),18.96%,19.35%
O=C1c2cccnc2OC(CN2CCOCC2)CN1Cc1cccs1 (stereo not given),4.432%,10.31%
O=C(N[C@@H]1CN(Cc2ccoc2)C[C@@H]2CCCO[C@@H]21)C1CCC1,-,11.82%
COc1ccccc1C1CNC(=O)c2nc(-c3cn(C)nc3C)[nH]c2C1 (stereo not given),-5.472%,38.89%
Cn1cnc2cc(CCC(=O)Nc3nc[nH]n3)ccc21,28.23%,14.61%
Cc1[nH]c2ccccc2c1-c1ccnc(N[C@@H](C)CO)n1,58.12%,8.571%
Cc1noc(C)c1CCCNC(=O)Nc1ccc2c(c1)CC(=O)N2,-25.73%,17.78%
COc1ccc(S(=O)(=O)N2CCc3ccc(F)cc32)cc1C(=O)O,-10.96%,6.897%
CCN(Cc1noc(C)n1)C(=O)CCc1scnc1C,-10.56%,11.11%
c1cc(NCc2ccsc2)cc(-c2nnc[nH]2)c1,-6.536%,15.56%
Cc1cc(CNCC2CCCN(C(=O)OC(C)(C)C)C2)no1 (stereo not given),-9.12%,-2.083%
Cc1nc(-n2nc(-c3cccs3)cc2N)[nH]c(=O)c1C,4.893%,25.33%
CNC(=O)c1sc(C(NC(=O)c2ccccc2)C2CC2)nc1C (stereo not given),-21.62%,17.78%
Cc1nc[nH]c1CN1CCCn2nc(CN3CCC(F)(F)CC3)cc2C1,3.011%,13.22%
O=C(NCC1CCCO1)c1ccc(S(=O)(=O)NCCc2cn[nH]c2)cc1 (stereo not given),14.94%,6.557%
CCn1ncc2c1CN(C(=O)Cc1ccccn1)CC2COC (stereo not given),-,15%
CCn1ccc(NC(=O)CCn2nc(C)c3ccccc32)n1,-66.82%,8.642%
O=C1CC(c2ccc(F)cc2)Cc2[nH]c(=O)c(C(=O)O)cc21 (stereo not given),14.16%,11.67%
CS(=O)(=O)N1CC[C@H]2O[C@H](C(=O)NCCc3ccccn3)CC[C@H]21,-,17.14%
CCOc1ccc(C(=O)Nc2c(C)nc3scc(C)n3c2=O)cc1,-0.7471%,5.085%
CS(=O)(=O)N1CCOCC2(CCN(Cc3ccc[nH]3)CC2)C1,-,17.09%
Nc1cc(-c2nccnc2N2CCCC2)c2cc[nH]c2n1,-0.2722%,20.21%
O=C(c1cnn(-c2ccccc2Cl)c1)N1CCN(CCO)CC1,-16.39%,12.28%
[H][C@@]12CS(=O)(=O)C[C@]1([H])N(Cc1ccc(C)c(C)c1)CCN2C(=O)C1CCC1,-3.315%,-
CN(C)CCn1c2c(ccc1=O)CCN(C(=O)c1cccs1)CC2,-,5.556%
CN(C)CCCN(Cc1cnn(C)c1)Cc1ccco1.O=C(O)CC(O)(CC(=O)O)C(=O)O,26.81%,-
CN1CC(=O)N(c2ccccc2)CC12CCN(Cc1nccs1)C2 (stereo not given),-,9.434%
CCN(CC)S(=O)(=O)CC(=O)N1CCc2ccc(C)cc21,-9.779%,24.1%
CN(C)c1ncnc2c1CCN(S(=O)(=O)c1cccc3nsnc13)C2,-6.768%,42.86%
COc1ccc(Cl)cc1C(C(=O)O)N1CCSCC1 (stereo not given),1.127%,12.39%
CN(C)C1CCCN(C(=O)NCCC(=O)N2CCCCCC2)C1 (stereo not given),8.43%,8.219%
COCCc1nc(-c2cnn3c(C)cc(C)nc23)no1,2.429%,22.22%
COCC1COCCC12CCN(C(=O)CCc1ccccc1)CC2 (stereo not given),1.151%,1.923%
O=C(c1cscn1)N1CC[C@H]2C[C@@H](c3ccncn3)O[C@@H]2C1,-,12.73%
Cc1nc(C(=O)N2CCOCC2)cc(N2CCC(C(N)=O)CC2)n1,12.55%,7.143%
COc1ccc(CN(C)[C@@H]2CN(S(=O)(=O)C(C)C)C[C@H]2O)cc1,5.649%,2.878%
CCn1cnnc1CNC(=O)c1cc(F)ccc1OC,-1.732%,4.348%
O=C(O)C(F)(F)F.O=C(O)C(F)(F)F.[H][C@@]12CN(Cc3cccs3)CCO[C@]1([H])CN(C1CCOCC1)C2,-2.926%,-
COc1ccccc1CNC(=O)c1ccccc1-n1cnc(CN)c1,-7.035%,12.37%
O=C(c1cccnc1)N1CC(S(=O)(=O)c2ccc(Cl)cc2)C1,-1.928%,4.348%
Cc1cc(C)n2ncc(CN3C[C@@H](O)[C@H](Oc4ccccc4)C3)c2n1,16.5%,3.448%
O=C(C1CCOCC1)N1CCO[C@H]2[C@H](Oc3cccnc3)CC[C@@H]21,-,9.677%
[H][C@@]12CCN(CC3CCC3)C[C@]1(C(=O)N1CCOCC1)CCO2,-14.19%,-
COCC(=O)N1CCCC(COc2ccccc2C)C1 (stereo not given),1.308%,11.84%
Cc1nn(C)c2c(NCCCn3cccn3)ncnc12,3.467%,23.3%
Fc1ccccc1Cc1noc(CN2CCCC(CN3CCCC3)C2)n1 (stereo not given),0.9191%,19.05%
CN(Cc1cnn(C)c1)C(=O)NCc1nnc2n1CCC2,-,-21.35%
COc1ncccc1-c1nc(-c2ccccn2)nn1C1CCS(=O)(=O)C1 (stereo not given),5.543%,16.44%
Cc1cccc2c1C(=O)NC(c1cnc(C3CCC3)s1)N2 (stereo not given),13.1%,12.2%

The last 4 entries again:

{"compound": "Fc1ccccc1Cc1noc(CN2CCCC(CN3CCCC3)C2)n1", "stereo": "stereo not given", "Toxoplasma": 0.9191, "LiHisRS": 19.05}
{"compound": "CN(Cc1cnn(C)c1)C(=O)NCc1nnc2n1CCC2", "LiHisRS": -21.35}
{"compound": "COc1ncccc1-c1nc(-c2ccccn2)nn1C1CCS(=O)(=O)C1", "stereo": "stereo not given", "Toxoplasma": 5.543, "LiHisRS": 16.44}
{"compound": "Cc1cccc2c1C(=O)NC(c1cnc(C3CCC3)s1)N2", "stereo": "stereo not given", "Toxoplasma": 13.1, "LiHisRS": 12.2}